Laboratory results published in paper doi:10.1101/2025.05.15.654347.

The chains behind the UniProt entries cited, without tags or fusion partners.
UniProt Q03135: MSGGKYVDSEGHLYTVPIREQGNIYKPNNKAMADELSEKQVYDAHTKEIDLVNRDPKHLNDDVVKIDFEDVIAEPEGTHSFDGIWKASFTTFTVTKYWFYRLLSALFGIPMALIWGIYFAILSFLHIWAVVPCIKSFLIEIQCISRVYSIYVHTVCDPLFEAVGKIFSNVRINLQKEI

Legend:
Test in all cases: affinity purification with mass spectrometry
[1] = biological target: T1, ^FLAGBTBD9^NEV/AKD, for mass spectrometry (not stated (human or mouse cDNA cloned)) (UniProt Q96Q07)
T1 sequence: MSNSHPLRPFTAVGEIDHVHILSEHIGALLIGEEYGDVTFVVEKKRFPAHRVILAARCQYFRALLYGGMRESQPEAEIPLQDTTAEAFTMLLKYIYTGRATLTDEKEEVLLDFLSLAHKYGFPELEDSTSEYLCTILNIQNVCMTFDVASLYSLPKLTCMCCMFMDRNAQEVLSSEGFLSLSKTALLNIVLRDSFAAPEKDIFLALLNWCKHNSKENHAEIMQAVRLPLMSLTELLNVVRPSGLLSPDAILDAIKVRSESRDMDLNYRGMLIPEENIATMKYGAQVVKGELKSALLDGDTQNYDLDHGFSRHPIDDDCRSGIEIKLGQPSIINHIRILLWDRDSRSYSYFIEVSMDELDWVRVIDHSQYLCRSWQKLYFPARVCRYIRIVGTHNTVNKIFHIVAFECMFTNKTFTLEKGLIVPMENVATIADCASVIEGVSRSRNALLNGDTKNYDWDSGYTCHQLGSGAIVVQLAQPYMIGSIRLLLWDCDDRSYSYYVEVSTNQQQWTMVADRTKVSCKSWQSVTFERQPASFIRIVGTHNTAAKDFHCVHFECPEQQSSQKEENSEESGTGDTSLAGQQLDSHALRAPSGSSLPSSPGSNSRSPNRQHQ

[2] = biological target: T2, ^FLAGBTBD9 (wildtype), for mass spectrometry (not stated (human or mouse cDNA cloned)) (UniProt Q96Q07)
T2 sequence: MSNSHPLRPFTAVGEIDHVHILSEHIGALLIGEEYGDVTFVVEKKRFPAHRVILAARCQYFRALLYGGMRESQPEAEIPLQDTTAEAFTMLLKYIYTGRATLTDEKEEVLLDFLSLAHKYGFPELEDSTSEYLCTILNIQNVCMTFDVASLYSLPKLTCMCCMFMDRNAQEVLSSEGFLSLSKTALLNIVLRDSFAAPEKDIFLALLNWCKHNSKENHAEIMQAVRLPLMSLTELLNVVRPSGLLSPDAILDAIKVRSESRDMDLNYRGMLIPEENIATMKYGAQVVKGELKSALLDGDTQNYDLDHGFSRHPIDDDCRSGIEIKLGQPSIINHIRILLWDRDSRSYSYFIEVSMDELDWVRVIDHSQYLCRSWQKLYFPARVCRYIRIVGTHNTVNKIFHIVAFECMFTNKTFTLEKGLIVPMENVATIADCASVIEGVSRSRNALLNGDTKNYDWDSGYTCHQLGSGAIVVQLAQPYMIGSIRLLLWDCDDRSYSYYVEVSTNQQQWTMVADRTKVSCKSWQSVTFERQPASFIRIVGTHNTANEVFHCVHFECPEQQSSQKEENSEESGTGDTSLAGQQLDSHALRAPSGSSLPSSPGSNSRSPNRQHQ

[3] = biological target: T3, ^FLAGBTBD9^M69A/R70A/E71A, for mass spectrometry (not stated (human or mouse cDNA cloned)) (UniProt Q96Q07)
T3 sequence: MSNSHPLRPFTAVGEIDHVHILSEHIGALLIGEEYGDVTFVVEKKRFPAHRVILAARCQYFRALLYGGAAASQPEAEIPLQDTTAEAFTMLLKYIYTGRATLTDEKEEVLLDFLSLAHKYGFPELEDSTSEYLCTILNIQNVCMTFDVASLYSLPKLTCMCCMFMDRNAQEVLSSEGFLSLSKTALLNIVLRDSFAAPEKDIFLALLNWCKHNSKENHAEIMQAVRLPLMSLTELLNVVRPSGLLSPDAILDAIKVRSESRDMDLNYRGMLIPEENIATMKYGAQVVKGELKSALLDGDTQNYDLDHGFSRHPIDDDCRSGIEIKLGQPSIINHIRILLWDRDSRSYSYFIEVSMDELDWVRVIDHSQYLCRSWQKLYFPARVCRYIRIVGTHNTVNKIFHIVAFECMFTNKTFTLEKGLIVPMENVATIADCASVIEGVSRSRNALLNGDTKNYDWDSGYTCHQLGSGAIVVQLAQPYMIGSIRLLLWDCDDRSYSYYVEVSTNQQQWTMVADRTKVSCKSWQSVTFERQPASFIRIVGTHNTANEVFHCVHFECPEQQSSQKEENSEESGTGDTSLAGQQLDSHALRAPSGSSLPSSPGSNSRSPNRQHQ

B1: KCTD10 (found in BTBD9 affinity-purifications by mass spectrometry) (protein, UniProt Q9H3F6 1-313)
chain: MEEMSGESVVSSAVPAAATRTTSFKGTSPSSKYVKLNVGGALYYTTMQTLTKQDTMLKAMFSGRMEVLTDSEGWILIDRCGKHFGTILNYLRDGAVPLPESRREIEELLAEAKYYLVQGLVEECQAALQNKDTYEPFCKVPVITSSKEEQKLIATSNKPAVKLLYNRSNNKYSYTSNSDDNMLKNIELFDKLSLRFNGRVLFIKDVIGDEICCWSFYGQGRKIAEVCCTSIVYATEKKQTKVEFPEARIYEETLNILLYEAQDGRGPDNALLEATGGAAGRSHHLDEDEERERIERVRRIHIKRPDDRAHLHQ
binding [2]: binds
binding [3]: binds

B2: KCTD13 (protein, UniProt Q8WZ19 1-329)
chain: MSAEASGPAAAAAPSLEAPKPSGLEPGPAAYGLKPLTPNSKYVKLNVGGSLHYTTLRTLTGQDTMLKAMFSGRVEVLTDAGGWVLIDRSGRHFGTILNYLRDGSVPLPESTRELGELLGEARYYLVQGLIEDCQLALQQKRETLSPLCLIPMVTSPREEQQLLASTSKPVVKLLHNRSNNKYSYTSTSDDNLLKNIELFDKLALRFHGRLLFLKDVLGDEICCWSFYGQGRKIAEVCCTSIVYATEKKQTKVEFPEARIFEETLNILIYETPRGPDPALLEATGGAAGAGGAGRGEDEENREHRVRRIHVRRHITHDERPHGQQIVFKD
binding [2]: binds
binding [3]: binds

B4: CAVIN3 (protein, UniProt Q969G5 1-261)
chain: MRESALERGPVPEAPAGGPVHAVTVVTLLEKLASMLETLRERQGGLARRQGGLAGSVRRIQSGLGALSRSHDTTSNTLAQLLAKAERVSSHANAAQERAVRRAAQVQRLEANHGLLVARGKLHVLLFKEEGEVPASAFQKAPEPLGPADQSELGPEQLEAEVGESSDEEPVESRAQRLRRTGLQKVQSLRRALSGRKGPAAPPPTPVKPPRLGPGRSAEAQPEAQPALEPTLEPEPPQDTEEDPGRPGAAEEALLQMESVA
binding [2]: binds

Continued, values first:

binding [1]: no binding
binding [2]: binds
binding [3]: binds
Molecule: endogenous CAV1 (found in BTBD9 affinity-purifications by mass spectrometry) (from UniProt Q03135 1-178)

binding [2]: binds
binding [3]: binds
B3: TNFAIP1 (found in BTBD9 affinity-purifications by mass spectrometry) (protein, UniProt Q13829 1-316)
chain: MSGDTCLCPASGAKPKLSGFKGGGLGNKYVQLNVGGSLYYTTVRALTRHDTMLKAMFSGRMEVLTDKEGWILIDRCGKHFGTILNYLRDDTITLPQNRQEIKELMAEAKYYLIQGLVNMCQSALQDKKDSYQPVCNIPIITSLKEEERLIESSTKPVVKLLYNRSNNKYSYTSNSDDHLLKNIELFDKLSLRFNGRVLFIKDVIGDEICCWSFYGQGRKLAEVCCTSIVYATEKKQTKVEFPEARIYEETLNVLLYETPRVPDNSLLEATSRSRSQASPSEDEETFELRDRVRRIHVKRYSTYDDRQLGHQSTHRD

These are yes or no findings as the source states them, for the method shown. In cells and extracts the contact can be indirect. These calls come from enrichment with a bait or labelling near it, and not all partners need be listed. For some of these results: A no says only that the protein was not detected with the bait. Sequences can lack the tags named with a protein. One block for each molecule: values may come before it.
